Laboratory results: publication doi:10.1101/2020.07.07.180133
These are yes or no findings as the source states them, for the method shown. In cells and extracts the contact can be indirect. Some entries that bind do so weakly or less than the wild type.

The chains behind the UniProt entries cited, without tags or fusion partners.
UniProt Q9EPU0: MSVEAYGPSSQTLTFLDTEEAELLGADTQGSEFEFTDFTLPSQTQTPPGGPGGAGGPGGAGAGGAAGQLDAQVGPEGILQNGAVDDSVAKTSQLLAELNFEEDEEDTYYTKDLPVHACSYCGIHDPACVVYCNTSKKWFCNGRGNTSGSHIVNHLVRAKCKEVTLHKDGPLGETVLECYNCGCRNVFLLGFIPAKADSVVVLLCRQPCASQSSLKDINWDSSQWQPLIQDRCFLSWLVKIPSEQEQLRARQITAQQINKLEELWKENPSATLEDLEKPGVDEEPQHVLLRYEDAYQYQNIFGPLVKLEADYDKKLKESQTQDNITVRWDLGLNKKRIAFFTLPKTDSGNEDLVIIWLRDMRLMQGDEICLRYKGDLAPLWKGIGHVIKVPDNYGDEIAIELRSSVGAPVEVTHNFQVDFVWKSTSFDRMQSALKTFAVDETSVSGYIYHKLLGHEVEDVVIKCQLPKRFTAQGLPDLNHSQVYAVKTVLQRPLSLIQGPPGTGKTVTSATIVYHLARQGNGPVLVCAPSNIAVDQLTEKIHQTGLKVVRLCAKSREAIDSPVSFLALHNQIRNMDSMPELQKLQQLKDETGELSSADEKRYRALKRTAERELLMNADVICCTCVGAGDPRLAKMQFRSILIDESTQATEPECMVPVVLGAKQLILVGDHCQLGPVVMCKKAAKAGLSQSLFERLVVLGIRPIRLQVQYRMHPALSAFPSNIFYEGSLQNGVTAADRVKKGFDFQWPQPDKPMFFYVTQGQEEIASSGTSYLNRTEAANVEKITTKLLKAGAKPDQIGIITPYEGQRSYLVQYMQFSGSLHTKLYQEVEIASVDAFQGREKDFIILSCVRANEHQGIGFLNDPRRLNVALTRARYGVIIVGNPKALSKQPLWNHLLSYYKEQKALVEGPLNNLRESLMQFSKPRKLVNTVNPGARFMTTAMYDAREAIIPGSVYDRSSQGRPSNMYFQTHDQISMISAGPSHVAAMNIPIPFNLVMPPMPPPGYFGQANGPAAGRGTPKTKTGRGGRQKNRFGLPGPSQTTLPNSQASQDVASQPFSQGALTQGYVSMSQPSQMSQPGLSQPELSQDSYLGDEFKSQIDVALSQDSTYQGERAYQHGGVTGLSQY

B1: Smg5 (protein, UniProt Q6ZPY2 1-1017)
chain: MSQGPPPGESSEPEAKVLHTKRLYRAVVEAVHRLDLILCNKAAYQEVFKPENVSLRNKLRELCVKLMFLHPVDYGRKAEELLWRKVYYEVIQLIKTNKKHIHSRSTLECAYRTHLVAGIGFYQHLLLYIQSHYQLELQCCIDWTHVTDPLMGFKKPVSASGKEMDWAQMACHRCLVYLGDLSRYQNELAGVDTELLAERFYYQALSVAPQIGMPFNQLGTLAGSKYYNVEAMYCYLRCIQSEVSFEGAYGNLKRLYDKAAKMYHQLKKSETRKLSPSKKRCKDIKRLLVNFMYLQSLLQPKSSSVDSELTSLCQSVLEDFNLCLFYLPSSPNLGLTNEDEEECESGYAFLPDLLIFQMAIICLMGVHSLKRAGSKHYSAAIAFTLALFSHLINHVNIRLQAELEEGENPVSAFQSDGTDEPESKEALEKEEPEPEPPTVVPQADEGRKSRKHSRLSCLRRRRRHHPPKAGDDSDLSEGFESDSSHDSAQASDGSDSGSDKSLEGRGTAFDAETDSEMNSQESRSDLEDMEDEEGTRSPAQEPPQARSEVPDSLNGPLGPSEASIASNLQAMSTQMFQTKRCFRLAPTFSNLLLQPTTEPNSVASHRPCVNGDMDKPLEPASEDGSESEGSESSNRSCRNERSLQEKLQALMAEGLLPAVKVFLDWLRTNPDLIIVCAQSSQSLWNRLSVLLNLLPASAELQDSGLALCSEVQGLLEGCELPDLPASLLLPEDMALRNLPPLRAAHRRFNFDADRPLLSALEESVVRICCIRSFGHFVARLQGSILQFNPEVGIFVSIAQSEQESLLQQAQAQFRMAEEEARRNRLMRDMAQLRLQLEVSQLEGSLQQPKAQSAMSPYLIPDTQALCYHLPLIRQLATSGRFIIIIPRTVIDGLDLLKKEQPGARDGIRYLEAEFKKGNRYIRCQKEVGKSFERHKLKRQDADAWTLYKILDSCRQLTLAQGAGEEDPSGMVTIITGLHLDSPSALSGPMQAALQAAAHASVDVKNVLDFYRQWKEIG

Molecular target: T1, Smg7 (mouse (endogenous in mouse ESCs)) (UniProt Q5RJH6)
T1 sequence: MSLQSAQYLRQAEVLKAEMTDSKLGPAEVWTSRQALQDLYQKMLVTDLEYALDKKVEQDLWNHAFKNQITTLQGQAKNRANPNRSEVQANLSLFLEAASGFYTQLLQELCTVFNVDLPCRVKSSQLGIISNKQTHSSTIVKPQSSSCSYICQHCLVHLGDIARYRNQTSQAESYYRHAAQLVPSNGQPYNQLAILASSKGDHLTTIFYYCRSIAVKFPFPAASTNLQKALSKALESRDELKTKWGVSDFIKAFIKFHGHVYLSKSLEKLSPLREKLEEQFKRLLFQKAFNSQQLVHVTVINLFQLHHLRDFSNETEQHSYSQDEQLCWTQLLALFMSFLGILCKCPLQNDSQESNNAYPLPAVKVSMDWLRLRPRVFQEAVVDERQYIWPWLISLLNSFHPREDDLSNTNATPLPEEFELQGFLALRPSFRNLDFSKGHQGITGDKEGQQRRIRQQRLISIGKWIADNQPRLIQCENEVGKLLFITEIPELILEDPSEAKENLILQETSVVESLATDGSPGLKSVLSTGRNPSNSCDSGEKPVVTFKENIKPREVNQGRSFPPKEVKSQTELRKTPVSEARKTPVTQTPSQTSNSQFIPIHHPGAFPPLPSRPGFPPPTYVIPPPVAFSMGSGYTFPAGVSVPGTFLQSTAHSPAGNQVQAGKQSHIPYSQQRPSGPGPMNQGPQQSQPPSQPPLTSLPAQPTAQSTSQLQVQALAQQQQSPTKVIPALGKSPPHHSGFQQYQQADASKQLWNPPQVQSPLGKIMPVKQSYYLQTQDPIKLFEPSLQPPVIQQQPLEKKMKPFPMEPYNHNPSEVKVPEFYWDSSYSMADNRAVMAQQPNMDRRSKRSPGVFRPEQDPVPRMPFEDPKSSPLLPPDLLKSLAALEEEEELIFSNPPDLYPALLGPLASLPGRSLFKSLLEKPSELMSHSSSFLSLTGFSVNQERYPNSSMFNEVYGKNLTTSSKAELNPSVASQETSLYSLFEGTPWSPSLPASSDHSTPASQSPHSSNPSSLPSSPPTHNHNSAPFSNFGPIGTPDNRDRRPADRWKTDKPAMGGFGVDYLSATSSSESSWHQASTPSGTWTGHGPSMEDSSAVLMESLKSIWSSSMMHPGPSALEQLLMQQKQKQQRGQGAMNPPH
Assay: co-IP

| Molecule | binding |
| --- | --- |
| phosphorylated Upf1 (from UniProt Q9EPU0 1-1124) | binds |
| B1 | binds |
